According to the supplement of paper PMC10849652:
The list shows a part of the results. Residues, ends and D or L forms follow the SMILES beside them. *: point of attachment. Cbz = O=C(OCc1ccccc1)*

Amino acid sequences for entries named in this document (tags omitted). A change or cut given only in a name is not applied to a line headed by its entry.
UniProt Q9BQ67, whole entry, looked up: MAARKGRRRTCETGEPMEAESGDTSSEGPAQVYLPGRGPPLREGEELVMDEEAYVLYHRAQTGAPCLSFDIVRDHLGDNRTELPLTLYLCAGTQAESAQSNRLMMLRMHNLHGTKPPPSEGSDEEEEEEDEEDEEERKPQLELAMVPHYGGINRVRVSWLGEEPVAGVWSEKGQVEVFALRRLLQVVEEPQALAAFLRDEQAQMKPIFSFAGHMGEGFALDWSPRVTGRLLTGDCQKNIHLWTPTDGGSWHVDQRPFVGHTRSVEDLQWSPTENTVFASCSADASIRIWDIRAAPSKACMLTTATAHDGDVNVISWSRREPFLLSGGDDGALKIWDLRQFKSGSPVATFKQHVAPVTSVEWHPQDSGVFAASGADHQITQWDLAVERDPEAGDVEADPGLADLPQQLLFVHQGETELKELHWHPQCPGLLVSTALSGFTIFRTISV
UniProt P17900: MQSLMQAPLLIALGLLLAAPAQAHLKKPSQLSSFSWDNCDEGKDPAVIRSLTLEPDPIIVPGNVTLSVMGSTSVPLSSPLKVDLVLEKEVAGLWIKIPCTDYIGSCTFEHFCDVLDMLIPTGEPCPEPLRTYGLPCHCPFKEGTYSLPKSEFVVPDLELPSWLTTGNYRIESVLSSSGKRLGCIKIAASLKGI
UniProt P63218: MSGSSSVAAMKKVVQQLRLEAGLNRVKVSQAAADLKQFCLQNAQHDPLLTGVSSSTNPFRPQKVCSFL
UniProt Q9BRT9, whole entry, looked up: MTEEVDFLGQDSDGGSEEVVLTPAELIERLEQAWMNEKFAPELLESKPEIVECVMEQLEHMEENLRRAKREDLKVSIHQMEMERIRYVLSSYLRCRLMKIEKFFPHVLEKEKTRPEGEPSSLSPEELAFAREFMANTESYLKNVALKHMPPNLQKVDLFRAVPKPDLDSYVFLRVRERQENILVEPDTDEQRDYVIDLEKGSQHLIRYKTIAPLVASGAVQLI
UniProt Q86WP2: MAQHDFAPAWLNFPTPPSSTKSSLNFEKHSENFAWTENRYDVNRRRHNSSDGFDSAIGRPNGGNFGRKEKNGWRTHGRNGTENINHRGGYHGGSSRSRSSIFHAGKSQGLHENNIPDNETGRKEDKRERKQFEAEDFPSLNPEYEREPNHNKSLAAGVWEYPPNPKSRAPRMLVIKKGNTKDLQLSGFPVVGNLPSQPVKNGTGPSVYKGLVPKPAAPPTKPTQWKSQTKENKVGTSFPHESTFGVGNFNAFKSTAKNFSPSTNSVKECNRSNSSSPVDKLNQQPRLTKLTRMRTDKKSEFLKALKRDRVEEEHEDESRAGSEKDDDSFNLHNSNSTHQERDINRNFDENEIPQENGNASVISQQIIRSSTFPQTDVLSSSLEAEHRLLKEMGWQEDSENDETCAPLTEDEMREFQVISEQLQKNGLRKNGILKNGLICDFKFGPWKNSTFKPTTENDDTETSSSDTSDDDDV
UniProt Q96EK6: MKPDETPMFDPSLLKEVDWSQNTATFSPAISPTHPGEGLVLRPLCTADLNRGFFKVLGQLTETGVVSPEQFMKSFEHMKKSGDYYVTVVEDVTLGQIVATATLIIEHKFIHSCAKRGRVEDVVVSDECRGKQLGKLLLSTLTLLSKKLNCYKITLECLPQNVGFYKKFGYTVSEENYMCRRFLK
UniProt Q9UBQ7: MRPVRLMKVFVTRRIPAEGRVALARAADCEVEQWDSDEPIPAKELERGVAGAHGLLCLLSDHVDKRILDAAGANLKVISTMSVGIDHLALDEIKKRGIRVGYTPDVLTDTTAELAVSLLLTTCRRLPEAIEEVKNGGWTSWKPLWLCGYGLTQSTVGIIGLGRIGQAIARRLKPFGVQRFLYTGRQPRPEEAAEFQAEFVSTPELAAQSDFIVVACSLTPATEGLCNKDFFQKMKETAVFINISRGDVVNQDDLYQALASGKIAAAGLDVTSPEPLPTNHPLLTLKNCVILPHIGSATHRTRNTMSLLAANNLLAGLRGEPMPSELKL
UniProt P25098: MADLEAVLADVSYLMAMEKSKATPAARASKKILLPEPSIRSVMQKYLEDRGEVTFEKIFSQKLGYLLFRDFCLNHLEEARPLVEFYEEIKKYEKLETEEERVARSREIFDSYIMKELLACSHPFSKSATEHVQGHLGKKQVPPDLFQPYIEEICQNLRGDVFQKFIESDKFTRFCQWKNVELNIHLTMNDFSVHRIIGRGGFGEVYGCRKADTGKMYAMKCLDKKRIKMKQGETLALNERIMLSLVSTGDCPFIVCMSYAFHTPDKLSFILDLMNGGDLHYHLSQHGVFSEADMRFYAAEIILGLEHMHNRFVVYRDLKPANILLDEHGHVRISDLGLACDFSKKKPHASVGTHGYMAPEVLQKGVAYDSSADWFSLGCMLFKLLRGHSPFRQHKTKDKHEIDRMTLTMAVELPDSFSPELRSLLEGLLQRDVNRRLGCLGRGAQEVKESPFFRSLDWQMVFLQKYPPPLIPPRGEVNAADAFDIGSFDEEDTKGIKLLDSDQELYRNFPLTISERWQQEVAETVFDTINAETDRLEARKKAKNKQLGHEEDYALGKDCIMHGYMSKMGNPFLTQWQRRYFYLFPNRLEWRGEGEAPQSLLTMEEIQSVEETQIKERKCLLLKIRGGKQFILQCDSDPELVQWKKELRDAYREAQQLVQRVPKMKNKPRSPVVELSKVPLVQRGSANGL

What was measured:
Test in all cases: log2 fold change, soluble protein after heating vs DMSO (PISA); higher = thermal stabilisation; K562 cells, 10 uM, 30 min; active = over 0.2 and 3.5 SD of the protein, either way, in both replicates (recomputed)
erlotinib = compound: C#Cc1cccc(Nc2ncnc3cc(OCCOC)c(OCCOC)cc23)c1 [erlotinib]
Method in brief: (§1)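 K562 cells at 2×10^6 cells/mL were given 10 μM compound for 30 min. Aliquots then went through 3 min of heating across 48°C-58°C, were pooled, and were extracted in PBS with 0.5% NP-40 at 4°C, and the supernatant after 21,000xg for 90 min was quantified by TMTpro 16plex LC-MS/MS with channel sums equalised. Thermal stability relative to control samples, from duplicates, is given as log2 fold change.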

[1] = compound: C/C(=N\NC(=O)C1=CC(=CC=C1)S(=O)(=O)N2CCOCC2)/C3=C(C=CC(=C3)Cl)O
Method in brief: as §1

[2] = compound: C1=CC(=C(C=C1Cl)C2=NC3=NC=CN=C3C(=N2)NC4=CC=NC=C4)F
Method in brief: as §1

[3] = compound: C1=CC(=CC=C1C2=NC3=C(N2)C=C(C=C3)C(=O)N)OC4=CC=C(C=C4)Cl
Method in brief: as §1

[4] = compound: C1=CC2=C(C=CC(=C2)/C=C\3/C(=O)NC(=NCC4=CC=CS4)S3)N=C1
Method in brief: as §1

[5] = compound: C1=CC2=NC=CN=C2C=C1/C=C/3\C(=O)NC(=O)S3
Method in brief: as §1

[6] = compound: C1=CC=C(C=C1)C2=NC(=C(N2)C3=CC=NC=C3)C4=CC(=C(C=C4)Cl)O
Method in brief: as §1

[7] = compound: C1=CC=C2C(=C1)C3=NNC4=CC=CC(=C43)C2=O
Method in brief: as §1

[8] = compound: C1CCN(C1)C(=O)NC2=CC=CC(=C2)NC3=NC=C(C(=N3)NCCC4=CN=CN4)Br
Method in brief: as §1

[9] = compound: C1CN(CCC1(CC2=CC=C(C=C2)Cl)N)C3=NC=NC4=C3C=CN4
Method in brief: as §1

IRAK-1-4 Inhibitor I = compound: C1COCCN1CCN2C3=CC=CC=C3N=C2NC(=O)C4=CC(=CC=C4)[N+](=O)[O-] [IRAK-1-4 Inhibitor I]
Method in brief: as §1

ibrutinib = compound: C=CC(=O)N1CCC[C@@H](n2nc(-c3ccc(Oc4ccccc4)cc3)c3c(N)ncnc32)C1 [ibrutinib]
Method in brief: as §1

[10] = compound: CC(=O)c1cnc2ccc(-c3cc(Cl)c(O)c(Cl)c3)nc2c1N[C@H]1CC[C@H](CN(C)C)CC1
Method in brief: as §1

ralimetinib = compound: CC(C)(C)Cn1c(N)nc2ccc(-c3[nH]c(C(C)(C)C)nc3-c3ccc(F)cc3)nc21 [ralimetinib]
Method in brief: as §1

[11] = compound: CC(C)(O)CC(=O)NCCn1ccc2ncnc(Nc3ccc(Oc4cccc(C(F)(F)F)c4)c(Cl)c3)c21
Method in brief: as §1

[12] = compound: CC(C)C1=C2N=C(C=C(N2N=C1)NCC3=CC=CC=C3)NCCCCCCN
Method in brief: as §1

[13] = compound: CC(C)C[C@@H](C=O)NC(=O)[C@H](CC(C)C)NC(=O)[C@H](CC(C)C)NC(=O)OCc1ccccc1
Method in brief: as §1

pinometostat = compound: CC(C)N(C[C@H]1O[C@@H](n2cnc3c(N)ncnc32)[C@H](O)[C@@H]1O)[C@H]1C[C@@H](CCc2nc3cc(C(C)(C)C)ccc3[nH]2)C1 [pinometostat]
Method in brief: as §1

[14] = compound: CC1=C(C(CC(=O)N1)C2=CC=C(C=C2)C(F)(F)F)C(=O)NC3=C(C=C4C(=C3)C=NN4)F
Method in brief: as §1

[15] = compound: CC1=C(C2=C(C=C1)C(=O)C3=CC=CC=C3N2CCCN)C
Method in brief: as §1

Measured: log2 fold change

GRWD1 (UniProt Q9BQ67)
inactive: erlotinib -0.112 | [1] -0.108 | [2] -0.4 | [3] 0.037 | [4] -0.058 | [5] -0.007 | [6] 0.022 | [7] -0.022 | [8] 0.178 | [9] -0.242 | IRAK-1-4 Inhibitor I -0.183 | ibrutinib 0.084 | [10] 0.154 | ralimetinib 0.207 | [11] 0 | [12] -0.081 | [13] 0.137 | pinometostat 0.222 | [14] 0.066 | [15] -0.289

GM2A (UniProt P17900)
inactive: erlotinib 0.001 | [1] 0.023 | [2] 0.049 | [3] -0.088 | [4] 0.087 | [5] -0.003 | [6] -0.054 | [7] -0.061 | [8] -0.014 | [9] -0.004 | IRAK-1-4 Inhibitor I 0.007 | ibrutinib -0.003 | [10] -0.039 | ralimetinib -0.054 | [11] 0.017 | [12] 0.114 | [13] -0.05 | pinometostat -0.045 | [14] -0.013 | [15] 0.136

GNG5 (UniProt P63218)
inactive: erlotinib -0.07 | [1] 0.01 | [3] 0.089 | [4] 0.031 | [5] -0.001 | [6] 0.072 | [7] 0.038 | [8] -0.037 | [9] -0.044 | IRAK-1-4 Inhibitor I -0.022 | ibrutinib 0.039 | [10] 0.047 | ralimetinib 0.072 | [11] -0.084 | [12] 0.109 | [13] -0.065 | pinometostat -0.072 | [15] 0.002
active: [2] 0.436

GINS4 (UniProt Q9BRT9)
inactive: erlotinib 0.031 | [1] 0.098 | [2] 0.043 | [3] 0.029 | [4] -0.023 | [5] 0 | [6] 0.014 | [7] 0.03 | [8] -0.012 | [9] 0.048 | IRAK-1-4 Inhibitor I 0.002 | ibrutinib 0.046 | [10] 0.01 | ralimetinib -0.009 | [11] 0.017 | [12] 0.006 | [13] 0.063 | pinometostat -0.089 | [14] 0.029 | [15] 0.023

GPBP1 isoform 2 (UniProt Q86WP2)
inactive: erlotinib 0.214 | [1] -0.103 | [2] -0.013 | [3] 0.099 | [4] 0.006 | [5] -0.059 | [6] -0.001 | [7] -0.055 | [8] -0.033 | [9] 0.045 | IRAK-1-4 Inhibitor I -0.092 | ibrutinib 0.053 | [10] 0.071 | ralimetinib 0.023 | [11] 0.09 | [12] -0.06 | [13] 0.102 | pinometostat 0.01 | [14] 0.012 | [15] -0.007

GNPNAT1 (UniProt Q96EK6)
inactive: erlotinib -0.053 | [1] 0.007 | [2] 0.032 | [3] -0.005 | [4] 0 | [5] -0.035 | [6] 0.002 | [7] 0.017 | [8] -0.042 | [9] -0.002 | IRAK-1-4 Inhibitor I 0.076 | ibrutinib 0.088 | [10] -0.021 | ralimetinib 0.002 | [11] -0.026 | [12] 0.13 | [13] -0.031 | pinometostat -0.003 | [14] 0.044 | [15] 0

GRHPR (UniProt Q9UBQ7)
inactive: erlotinib 0.049 | [1] 0.038 | [2] 0.044 | [3] -0.006 | [4] -0.015 | [5] -0.06 | [6] 0.022 | [7] 0.065 | [8] -0.086 | [9] 0.062 | IRAK-1-4 Inhibitor I 0.059 | ibrutinib 0.019 | [10] 0.033 | ralimetinib -0.017 | [11] -0.02 | [12] -0.007 | [13] -0.012 | pinometostat -0.004 | [14] -0.018 | [15] -0.008

GRK2 (UniProt P25098)
inactive: erlotinib 0.015 | [1] 0.044 | [2] 0.028 | [3] 0.009 | [4] 0.052 | [5] -0.003 | [6] 0.01 | [7] 0.033 | [8] -0.016 | [9] 0.086 | IRAK-1-4 Inhibitor I 0.005 | ibrutinib 0.015 | [10] -0.073 | ralimetinib -0.055 | [11] -0.058 | [12] -0.014 | [13] 0.008 | pinometostat -0.009 | [14] 0.011 | [15] 0.05
